Experimental data: PubChem BioAssay AID1224827 (NIAID, 2016)

Purpose: 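Retest primary hits on a TNF reporter with six siRNAs per gene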 (follow-up of hits)
Cell system: RAW264.7 G9 mouse macrophage reporter clone
Reagent: single siRNA against mouse genes, 100 nM siRNA
Duration: siRNA for 2 days, then LPS about 16 h
Treatment: bacterial lipopolysaccharide (LPS), 10 ng/ml, cells fixed after overnight (about 16 h) stimulation
Read-out: 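Imaged nuclear TNF reporter intensity, background removed, scaled per plate and to non-targeting control wells, as z-scores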
Direction: TNF reporter z-score, mean: higher = stronger Tnf promoter reporter signal
Call rule: 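Active siRNA: replicate-mean z-score of 2 or more, or -2 or less; no calls for control wells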
Shown is a random part of about 3,800 reagents tested. Of all reagents, about 2,200 (57%) got an active call. 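Active means a strong reporter change in either direction; calls are per siRNA, not per gene; qiagen siRNAs gave weaker effects.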 Entries without a mark were called inactive. Reagents against one gene are numbered here. Not all columns of the deposit are shown.

| gene knocked down | reagent no. | TNF reporter z-score, mean |
| --- | --- | --- |
| Pdk3 | 1 | 5.87 (active) |
| Pdk3 | 2 | -1.97 |
| Pdk3 | 3 | -3.36 (active) |
| Pdk3 | 4 | 1.28 |
| Pdk3 | 5 | -0.382 |
| Pdk3 | 6 | -0.527 |
| 4933431E20Rik | 1 | 0.541 |
| 4933431E20Rik | 2 | -1.34 |
| 4933431E20Rik | 3 | -4.91 (active) |
| Dpm2 | 1 | -0.571 |
| Dpm2 | 2 | -2.58 (active) |
| Dpm2 | 3 | -4.25 (active) |
| Dpm2 | 4 | 3.73 (active) |
| Dpm2 | 5 | 1.74 |
| Dpm2 | 6 | -3.36 (active) |
| Adcy9 | 1 | 2.24 (active) |
| Adcy9 | 2 | 0.756 |
| Adcy9 | 3 | -1.74 |
| Adcy9 | 4 | -0.201 |
| Adcy9 | 5 | -1.07 |
| Adcy9 | 6 | -1 |
| Nfkbid | 1 | -0.5 |
| Nfkbid | 2 | -3.13 (active) |
| Nfkbid | 3 | -4.1 (active) |
| Nfkbid | 4 | 1.68 |
| Nfkbid | 5 | 0.208 |
| Nfkbid | 6 | -0.871 |
| Cbln2 | 1 | 6.35 (active) |
| Cbln2 | 2 | 1.9 |
| Cbln2 | 3 | -0.838 |
| Cbln2 | 4 | 3.39 (active) |
| Cbln2 | 5 | 0.163 |
| Cbln2 | 6 | -2.82 (active) |
| Rxrb | 1 | 0.151 |
| Rxrb | 2 | -3.01 (active) |
| Rxrb | 3 | -3.37 (active) |
| Rxrb | 4 | 1.02 |
| Rxrb | 5 | 0.105 |
| Rxrb | 6 | -0.753 |
| Inpp5b | 1 | -3.4 (active) |
| Inpp5b | 2 | -3.72 (active) |
| Inpp5b | 3 | -4.31 (active) |
| Inpp5b | 4 | -0.727 |
| Inpp5b | 5 | -2.49 (active) |
| Inpp5b | 6 | -2.35 (active) |
| Usp8 | 1 | 4.4 (active) |
| Usp8 | 2 | -0.905 |
| Usp8 | 3 | -4.41 (active) |
| Usp8 | 4 | 5.66 (active) |
| Usp8 | 5 | -0.185 |
| Usp8 | 6 | -1.61 |
| Prrt3 | 1 | -3.55 (active) |
| Prrt3 | 2 | -3.61 (active) |
| Prrt3 | 3 | -6.36 (active) |
| Prrt3 | 4 | 8.37 (active) |
| Prrt3 | 5 | 4.63 (active) |
| Prrt3 | 6 | -2.09 (active) |
| Rarres2 | 1 | -1.49 |
| Rarres2 | 2 | -3.16 (active) |
| Rarres2 | 3 | -5.57 (active) |
| Rarres2 | 4 | 1.71 |
| Rarres2 | 5 | -1.65 |
| Rarres2 | 6 | -1.54 |
| Cryba4 | 1 | -3.97 (active) |
| Cryba4 | 2 | -4.48 (active) |
| Cryba4 | 3 | -4.58 (active) |
| Cryba4 | 4 | 3.82 (active) |
| Cryba4 | 5 | -1.18 |
| Cryba4 | 6 | -2.64 (active) |
| Or1j4 | 1 | 7.86 (active) |
| Or1j4 | 2 | -3.23 (active) |
| Or1j4 | 3 | -4.6 (active) |
| Or1j4 | 4 | -0.37 |
| Or1j4 | 5 | -1.22 |
| Or1j4 | 6 | -2.52 (active) |
